In all, about 410,000 compounds went through this assay and about 5,000 (1.2%) were called active. The source calls these results inconclusive, neither active nor inactive. The call rests on the fitted dose curve; in most records, active means well fitted inhibition curve with a large enough effect; inconclusive means small, poorly fitted or top-dose-only effect; inactive means no such curve, though single readings can be large or run the other way.
Assay: qHTS for Inhibitors of TGF-b; further: nearly all actives have a fitted effect of over 65% in size
Conditions: HepG2 CAGA-GFP TGF-b/SMAD3 reporter, GFP fluorescence, 18 h; TGF-beta stimulated, 500 pg/mL final
Potency means the concentration at half of the fitted maximal effect.

Compound	Potency
CP(=O)(Nc1ccc(SC(F)(F)F)cc1)Oc1ccc(Cl)cc1 (stereo not given)	inconclusive: 22.4 µM
Cc1cc(C)cc(OP(C)(=O)Nc2ccc(SC(F)(F)F)cc2)c1 (stereo not given)	inconclusive: 25.1 µM
CCc1ccc(OP(C)(=O)N2CCN(c3ccc([N+](=O)[O-])cc3)CC2)cc1 (stereo not given)	inconclusive: 35.5 µM
O=[N+]([O-])c1cc([N+](=O)[O-])c(Nc2cccnc2)c([N+](=O)[O-])c1	inconclusive: 12.6 µM
O=[N+]([O-])c1ccc2c(c1)C=Nc1ccccc1O2	inconclusive: 35.5 µM
COc1ccccc1OP(C)(=O)Nc1cc(Cl)ccc1C (stereo not given)	inconclusive: 35.5 µM
O=[N+]([O-])c1cc([N+](=O)[O-])c(-c2cnn(-c3ccccc3)c2)c([N+](=O)[O-])c1	inconclusive: 25.1 µM
O=[N+]([O-])c1cc([N+](=O)[O-])c(Nc2nnnn2CCO)c([N+](=O)[O-])c1	inconclusive: 6.31 µM
CP(=O)(Nc1ccc(SC(F)(F)F)cc1)Oc1ccc(F)cc1 (stereo not given)	inconclusive: 22.4 µM
CC(C)c1ccc(OP(C)(=O)Nc2ccc(SC(F)(F)F)cc2)cc1 (stereo not given)	inconclusive: 25.1 µM
Cc1c([N+](=O)[O-])cc([N+](=O)[O-])c(Br)c1[N+](=O)[O-]	inconclusive: 14.1 µM
CCN(CC)CCCOC(=O)C(O)(c1ccccc1)C1CCCCC1 (stereo not given)	inconclusive: 15.8 µM
Cc1cc(C)cc(OP(C)(=O)Nc2cccc(C(F)(F)F)c2)c1 (stereo not given)	inconclusive: 35.5 µM
CCCCCCCCCCCCCCCC1C[N+](C)(C)CCOP(C)(=O)O1 (stereo not given)	inconclusive: 25.1 µM
CCOC(=O)c1ccc(NP(C)(=O)Oc2ccc(Cl)cc2)cc1 (stereo not given)	inconclusive: 35.5 µM
